# Data taken from the supplement of paper PMC8728848.
# This is one part of the list.
# Key:
# Test in all cases: glycan array binding signal (z-score within array); higher = stronger binding
# Settings in all cases: glycan notation: IUPAC condensed, linker removed
# Glc(b1-6)Glc = target: Glc(b1-6)Glc
# Method in brief: (§1)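 The binding signal is a Z-score computed within each array and averaged over linkers. Arrays of the same protein sequence at different concentrations or buffers were also averaged together. Data originate from 3228 arrays in the Consortium for Functional Glycomics database, kept only where the protein sequence was available.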
# GlcA(b1-3)Gal = target: GlcA(b1-3)Gal
# Method in brief: as §1
# GlcA(b1-3)GlcNAc = target: GlcA(b1-3)GlcNAc
# Method in brief: as §1
# GlcA(b1-6)Gal = target: GlcA(b1-6)Gal
# Method in brief: as §1
# [1] = target: GlcA3S(b1-3)Gal(b1-4)GlcNAc(b1-2)Man
# Method in brief: as §1
# [2] = target: GlcA3S(b1-3)Gal(b1-4)GlcNAc(b1-3)Gal(b1-4)Glc
# Method in brief: as §1
# [3] = target: GlcNAc(a1-3)Gal(b1-4)GlcNAc
# Method in brief: as §1
# [4] = target: GlcNAc(a1-4)Gal(b1-3)GlcNAc
# Method in brief: as §1
# [5] = target: GlcNAc(a1-4)Gal(b1-4)GalNAc
# Method in brief: as §1
# [6] = target: GlcNAc(a1-4)Gal(b1-4)GlcNAc
# Method in brief: as §1
# [7] = target: GlcNAc(a1-4)Gal(b1-4)GlcNAc(b1-3)Gal(b1-4)Glc
# Method in brief: as §1
# [8] = target: GlcNAc(a1-4)Gal(b1-4)GlcNAc(b1-3)Gal(b1-4)GlcNAc
# Method in brief: as §1
# [9] = target: GlcNAc(a1-4)Gal(b1-4)GlcNAc(b1-3)Gal(b1-4)GlcNAc(b1-3)Gal(b1-4)GlcNAc
# Method in brief: as §1
# [10] = target: GlcNAc(a1-4)Gal(b1-4)GlcNAc(b1-3)Gal(b1-4)[Fuc(a1-3)]GlcNAc(b1-3)Gal(b1-4)[Fuc(a1-3)]GlcNAc
# Method in brief: as §1
# [11] = target: GlcNAc(a1-6)Gal(b1-4)GlcNAc
# Method in brief: as §1
# [12] = target: GlcNAc(b1-2)Gal(b1-3)GalNAc
# Method in brief: as §1
# [13] = target: GlcNAc(b1-2)Man(a1-3)[GlcNAc(b1-2)Man(a1-6)]Man(b1-4)GlcNAc(b1-4)GlcNAc
# Method in brief: as §1
# [14] = target: GlcNAc(b1-2)Man(a1-3)[GlcNAc(b1-2)Man(a1-6)]Man(b1-4)GlcNAc(b1-4)[Fuc(a1-6)]GlcNAc
# Method in brief: as §1
# [15] = target: GlcNAc(b1-2)Man(a1-3)[GlcNAc(b1-4)][GlcNAc(b1-2)Man(a1-6)]Man(b1-4)GlcNAc(b1-4)GlcNAc
# Method in brief: as §1
# [16] = target: GlcNAc(b1-2)Man(a1-3)[GlcNAc(b1-4)][GlcNAc(b1-2)Man(a1-6)]Man(b1-4)GlcNAc(b1-4)[Fuc(a1-6)]GlcNAc
# Method in brief: as §1
# [17] = target: GlcNAc(b1-2)[GlcNAc(b1-4)]Man(a1-3)[GlcNAc(b1-2)Man(a1-6)]Man(b1-4)GlcNAc(b1-4)GlcNAc
# Method in brief: as §1
# [18] = target: GlcNAc(b1-2)[GlcNAc(b1-4)]Man(a1-3)[GlcNAc(b1-4)][GlcNAc(b1-2)Man(a1-6)]Man(b1-4)GlcNAc(b1-4)GlcNAc
# Method in brief: as §1
# [19] = target: GlcNAc(b1-2)[GlcNAc(b1-4)]Man(a1-3)[GlcNAc(b1-4)][GlcNAc(b1-2)[GlcNAc(b1-6)]Man(a1-6)]Man(b1-4)GlcNAc(b1-4)GlcNAc
# Method in brief: as §1
# [20] = target: GlcNAc(b1-2)[GlcNAc(b1-4)]Man(a1-3)[GlcNAc(b1-4)][GlcNAc(b1-2)[GlcNAc(b1-6)]Man(a1-6)]Man(b1-4)GlcNAc(b1-4)[Fuc(a1-6)]GlcNAc
# Method in brief: as §1
# [21] = target: GlcNAc(b1-2)[GlcNAc(b1-6)]Man(a1-6)[GlcNAc(b1-2)Man(a1-3)]Man(b1-4)GlcNAc(b1-4)GlcNAc
# Method in brief: as §1
# [22] = target: GlcNAc(b1-2)[GlcNAc(b1-6)]Man(a1-6)[GlcNAc(b1-2)Man(a1-3)]Man(b1-4)GlcNAc(b1-4)[Fuc(a1-6)]GlcNAc
# Method in brief: as §1
# [23] = target: GlcNAc(b1-2)[GlcNAc(b1-6)]Man(a1-6)[GlcNAc(b1-4)][GlcNAc(b1-2)Man(a1-3)]Man(b1-4)GlcNAc(b1-4)GlcNAc
# Method in brief: as §1
# GlcNAc(b1-3)Fuc = target: GlcNAc(b1-3)Fuc
# Method in brief: as §1
# GlcNAc(b1-3)Gal = target: GlcNAc(b1-3)Gal
# Method in brief: as §1
# [24] = target: GlcNAc(b1-3)Gal(b1-3)GalNAc
# Method in brief: as §1
# GlcNAc(b1-3)Gal(b1-4)Glc = target: GlcNAc(b1-3)Gal(b1-4)Glc
# Method in brief: as §1
# [25] = target: GlcNAc(b1-3)Gal(b1-4)GlcNAc
# Method in brief: as §1
# [26] = target: GlcNAc(b1-3)Gal(b1-4)GlcNAc(b1-2)Man(a1-3)[GlcNAc(b1-3)Gal(b1-4)GlcNAc(b1-2)Man(a1-6)]Man(b1-4)GlcNAc(b1-4)GlcNAc
# Method in brief: as §1
# [27] = target: GlcNAc(b1-3)Gal(b1-4)GlcNAc(b1-2)Man(a1-3)[GlcNAc(b1-3)Gal(b1-4)GlcNAc(b1-2)Man(a1-6)]Man(b1-4)GlcNAc(b1-4)[Fuc(a1-6)]GlcNAc
# Method in brief: as §1
# [28] = target: GlcNAc(b1-3)Gal(b1-4)GlcNAc(b1-2)[GlcNAc(b1-3)Gal(b1-4)GlcNAc(b1-6)]Man(a1-6)[GlcNAc(b1-3)Gal(b1-4)GlcNAc(b1-2)Man(a1-3)]Man(b1-4)GlcNAc(b1-4)GlcNAc
# Method in brief: as §1
# [29] = target: GlcNAc(b1-3)Gal(b1-4)GlcNAc(b1-3)Gal(b1-4)GlcNAc
# Method in brief: as §1
# [30] = target: GlcNAc(b1-3)Gal(b1-4)GlcNAc(b1-3)Gal(b1-4)GlcNAc(b1-2)Man(a1-3)[GlcNAc(b1-3)Gal(b1-4)GlcNAc(b1-3)Gal(b1-4)GlcNAc(b1-2)Man(a1-6)]Man(b1-4)GlcNAc(b1-4)GlcNAc
# Method in brief: as §1
binder,measurement,setting,value
PX14343C-bfa-541-26-541 (Bacteroides fragilis) (protein) KAPLDEIADDSFWSDETLVKYYVNDLYSEISVDGLQLQENRSDNSVSAQRDKYRASWFKFNYDMVSASDPQDDDVWEDYYVKVRKCNRFFERIGTSTIEESEKSRLTGEVHFLRAMFYFEMVKRYGGVILLDKVLTMEDNWEIPRSSEKECYDFILEDLKKATEMLPASYGSREKGRATKGAAYALKSRVELYDKRYEDVIKSCAEVYKLGYELVDGTTPEKYRSIWWTTNKDNKEIIFDVQYKSPDVYNNMMVCNMVTYINDKYGDRGWGGLGPTQELIDAFEMADGTPATQYSQAPADQVFDINTCGIYEGREPRFYANIVFHGSQIFFNADKGAVTVDRYLMDTPDKGDGSLTGYNVWKWIDYDNYNYPYAGAGSPDFSTNWIILRYAEIYLNDAEARLETGDVEGARKAVNMIRQRVGLPDLTESDPEKLRELIRKERRIEFAFEEQRFYDVRRWKIGPETQTTLHGVRFVSPTEFKVTKTDIRTWNDRLYLTPVPHDEIVRSSVLKQNLGY,glycan array binding signal (z-score),Glc(b1-6)Glc,-0.118
same,glycan array binding signal (z-score),GlcA(b1-3)Gal,-0.328
same,glycan array binding signal (z-score),GlcA(b1-3)GlcNAc,-0.706
same,glycan array binding signal (z-score),GlcA(b1-6)Gal,0.479
same,glycan array binding signal (z-score),[1],0.092
same,glycan array binding signal (z-score),[2],-0.274
same,glycan array binding signal (z-score),[3],-0.839
same,glycan array binding signal (z-score),[4],0.456
same,glycan array binding signal (z-score),[5],0.256
same,glycan array binding signal (z-score),[6],-0.593
same,glycan array binding signal (z-score),[7],-0.77
same,glycan array binding signal (z-score),[8],0.216
same,glycan array binding signal (z-score),[9],-1.04
same,glycan array binding signal (z-score),[10],1.91
same,glycan array binding signal (z-score),[11],-1.31
same,glycan array binding signal (z-score),[12],-0.932
same,glycan array binding signal (z-score),[13],-0.69
same,glycan array binding signal (z-score),[14],-0.455
same,glycan array binding signal (z-score),[15],-0.078
same,glycan array binding signal (z-score),[16],0.535
same,glycan array binding signal (z-score),[17],-0.156
same,glycan array binding signal (z-score),[18],-0.349
same,glycan array binding signal (z-score),[19],0.147
same,glycan array binding signal (z-score),[20],-1.03
same,glycan array binding signal (z-score),[21],-0.274
same,glycan array binding signal (z-score),[22],-0.72
same,glycan array binding signal (z-score),[23],-0.265
same,glycan array binding signal (z-score),GlcNAc(b1-3)Fuc,-0.353
same,glycan array binding signal (z-score),GlcNAc(b1-3)Gal,-0.587
same,glycan array binding signal (z-score),[24],0.341
same,glycan array binding signal (z-score),GlcNAc(b1-3)Gal(b1-4)Glc,-1.11
same,glycan array binding signal (z-score),[25],-0.99
same,glycan array binding signal (z-score),[26],-0.343
same,glycan array binding signal (z-score),[27],0.544
same,glycan array binding signal (z-score),[28],0.567
same,glycan array binding signal (z-score),[29],-0.757
same,glycan array binding signal (z-score),[30],0.981

# Reprinted at random: 2 entries already listed.
binder,measurement,setting,value
PX14343C-bfa-541-26-541 (Bacteroides fragilis) (protein) KAPLDEIADDSFWSDETLVKYYVNDLYSEISVDGLQLQENRSDNSVSAQRDKYRASWFKFNYDMVSASDPQDDDVWEDYYVKVRKCNRFFERIGTSTIEESEKSRLTGEVHFLRAMFYFEMVKRYGGVILLDKVLTMEDNWEIPRSSEKECYDFILEDLKKATEMLPASYGSREKGRATKGAAYALKSRVELYDKRYEDVIKSCAEVYKLGYELVDGTTPEKYRSIWWTTNKDNKEIIFDVQYKSPDVYNNMMVCNMVTYINDKYGDRGWGGLGPTQELIDAFEMADGTPATQYSQAPADQVFDINTCGIYEGREPRFYANIVFHGSQIFFNADKGAVTVDRYLMDTPDKGDGSLTGYNVWKWIDYDNYNYPYAGAGSPDFSTNWIILRYAEIYLNDAEARLETGDVEGARKAVNMIRQRVGLPDLTESDPEKLRELIRKERRIEFAFEEQRFYDVRRWKIGPETQTTLHGVRFVSPTEFKVTKTDIRTWNDRLYLTPVPHDEIVRSSVLKQNLGY,glycan array binding signal (z-score),GlcNAc(b1-3)Gal(b1-4)Glc,-1.11
same,glycan array binding signal (z-score),[29],-0.757
